Reference: article PMC10564737, “Structure-based design of a phosphotyrosine-masked covalent ligand targeting the E3 ligase SOCS2” (Nature Communications, 2023)
Several values for one entry are separate records, joined by “and”; a condition that tells them apart may be missing. Equal values may be shown once. The source gives many values for each of these; only a part stands here.

Sequences of proteins named here, by UniProt entry; tags and fusion partners are left off. Residues count along the entry.
UniProt O14508, 32-198: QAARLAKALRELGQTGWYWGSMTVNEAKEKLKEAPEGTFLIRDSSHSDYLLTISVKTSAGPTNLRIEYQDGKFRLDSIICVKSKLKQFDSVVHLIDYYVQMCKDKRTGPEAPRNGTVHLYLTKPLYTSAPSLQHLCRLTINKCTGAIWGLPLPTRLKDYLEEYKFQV

Target: T1, SBC2 (Homo sapiens, UniProt O14508)
T1 construct: SOCS2 (amino acids 32–198); His6 (N, cleaved yes); made in house; host or cells: E. coli BL21(DE3)
Assay: Covalent fluorescence polarization (FP) probe displacement assay
Type: binding
From the text: With the specific covalent modification of Cys111 established, we decided to fully characterize MN551 as a covalent SOCS2 inhibitor. […] (Fig. 2g, h, Supplementary Fig. 9). Due to the covalent nature of the competing inhibitor, a time-dependent reduction in the fraction of protein-bound probe is observed. […] This value illustrates reasonable specificity for a covalent inhibitor, with nonetheless scope for future optimization. In addition to characterizing the kinetic covalency parameters, we have also assessed the stability of the MN551 by monitoring its reactivity (half-life >70 min) with reduced glutathione (GSH) (Supplementary Fig. 10)[35].
To monitor the SBC2-ligand binding kinetics we designed a fluorescein-labeled small-molecule probe - compound 26. The fluorescence polarization (anisotropy) of a threefold serial dilution of 50 µM SBC2 in 10 nM of the probe in 100 mM HEPES pH 7.5, 50 mM NaCl, 0.5 mM TCEP, 2% DMSO was measured to determine the KL (Supplementary Fig. 9A) (BMG Labtech PHERAstar – firmware v1.33). Protein titration and the curves were fitted using GraphPad Prism 9, using one-site fitting models to determine the probe binding constant, KL. Samples were run in triplicate in 384 well plates, using a total volume per well of 16 μL. The bound fraction of the probe is measure using the equation:1 Fb=Af−A/Af−Ab Where,
A time-dependent reduction in probe anisotropy were measured for a 2-fold serial dilution of […] compound MN551 in 10 nM probe +300 μM SBC2. To determine the initial reversible binding affinity, the initial bound fraction of the probe at time = 0, Fbo (the y-intercept in Fb v/s Time plot, Supplementary Fig. 9B) was plotted against MN551 concentration, and the obtained IC50 is then converted to Ki (Supplementary Fig. 9C)[17]. The slope from Fb versus time graph when divided by Fbo gives rate of covalency, kobs. A plot of kobs v/s MN551 concentration using Michaelis–Menten model of GraphPad Prism 9, provides the parameters kinact (maximum potential rate of inactivation) and KI (concentration of MN551 at which kobs = kinact/2) (Supplementary Fig. 9D, E).
The observed first-order rate constant, kobs is related to KI and kinact by the equation:2 kobs=kinactI/KI+I
At [I]«[KI] the above equation is converted to3 […]
The slope from the plot of kobs against concentration of MN551 gives us the covalent efficiency parameter kinact/KI (Supp Fig. 9F)[30],[33].

[1] = MN551 67.7604 nM, Cycle 17 (80 min), n=1
[2] = MN551 67.7604 nM, Cycle 18 (85 min), n=1
[3] = MN551 67.7604 nM; Cycle 6 (25 min)
[4] = MN551 67.7604 nM; Cycle 7 (30 min)
[5] = MN551 67.7604 nM; Cycle 8 (35 min)
[6] = MN551 67.7604 nM; Cycle 9 (40 min)
[7] = MN551 67.7604 nM; Cycle 10 (45 min)
[8] = MN551 67.7604 nM; Cycle 11 (50 min)
[9] = MN551 67.7604 nM; Cycle 12 (55 min); n=1
[10] = MN551 67.7604 nM; Cycle 13 (60 min); n=1
[11] = MN551 67.7604 nM; Cycle 14 (65 min); n=1
[12] = MN551 67.7604 nM; Cycle 15 (70 min); n=1
[13] = MN551 67.7604 nM; Cycle 16 (75 min); n=1
[14] = MN551 94.8645 nM, Cycle 8 (35 min)
[15] = MN551 94.8645 nM, Cycle 9 (40 min)
[16] = MN551 94.8645 nM, Cycle 10 (45 min)
[17] = MN551 94.8645 nM, Cycle 11 (50 min)
[18] = MN551 94.8645 nM, Cycle 15 (70 min), n=1
[19] = MN551 94.8645 nM, Cycle 16 (75 min), n=1
[20] = MN551 94.8645 nM, Cycle 17 (80 min), n=1
[21] = MN551 94.8645 nM, Cycle 18 (85 min), n=1
[22] = MN551 94.8645 nM; Cycle 6 (25 min)
[23] = MN551 94.8645 nM; Cycle 7 (30 min)
[24] = MN551 94.8645 nM; Cycle 8 (35 min)
[25] = MN551 94.8645 nM; Cycle 9 (40 min)
[26] = MN551 94.8645 nM; Cycle 10 (45 min)
[27] = MN551 94.8645 nM; Cycle 11 (50 min)
[28] = MN551 94.8645 nM; Cycle 12 (55 min); n=1
[29] = MN551 94.8645 nM; Cycle 13 (60 min); n=1

`O=C(CCl)Nc1cccc(CNC(=O)[C@H](Cc2ccc(OP(=O)(O)O)cc2)NC(=O)Cc2ccc(F)cc2)c1` [MN551] was tested, and the “Normalised anisotropy (0 nM MN551 = 1, free probe = 0)” value (MN551 67.7604 nM, Cycle 16 (75 min), n=1) was 1.011 and 0.9971 and 0.9751, the Anisotropy [1] was 273.9 and 272.9 and 272.4 and the “Normalised anisotropy (0 nM MN551 = 1, free probe = 0)” value [1] was 1.011 and 0.9923 and 1.019. The Anisotropy [2] was 273.3 and 273 and 268.8, the “Normalised anisotropy (0 nM MN551 = 1, free probe = 0)” value [2] was 1.015 and 1.008 and 1.011 and the “Fb, fraction bound” value (MN551 67.7604 nM; Cycle 3 (10 min)) was 1.012 and 1.015. For the same compound, the “Fb, fraction bound” value (MN551 67.7604 nM; Cycle 4 (15 min)) was 1.045 and 1.001 and 1.044, the “Fb, fraction bound” value (MN551 67.7604 nM; Cycle 5 (20 min)) was 1.021 and 1.01 and 1.035 and the “Anisotropy data 485,520,520” value [3] was 255.5 and 268.5 and 268.1. For the same compound, the Fb [3] was 1.001 and 1.023 and 1.097, the “Fb, fraction bound” value [3] was 1.014 and 1.003 and 1.019 and the “Anisotropy data 485,520,520” value [4] was 254 and 269.1 and 265.5. The Fb [4] was 1.003 and 1.031 and 1.1195, the “Fb, fraction bound” value [4] was 1.006 and 0.9878 and 1.026 and the Anisotropy [5] was 280.6 and 277.8 and 278.8. The “Anisotropy data 485,520,520” value [5] was 254.8 and 266.5 and 267.2, the Fb [5] was 0.9713 and 1.02 and 1.131 and 1.039 and 0.9859 and 1.031 and the Anisotropy [6] was 279.4 and 279.7 and 277.3. For the same compound, the “Anisotropy data 485,520,520” value [6] was 251.7 and 265.7 and 262.8, the Fb [6] was 0.9836 and 1.032 and 1.106 and 1.035 and 0.9991 and 1.012 and the Anisotropy [7] was 280.9 and 277.5 and 274.3. For the same compound, the “Anisotropy data 485,520,520” value [7] was 251.5 and 263.4 and 263.1, the Fb [7] was 1 and 1.033 and 1.133 and 1.042 and 0.9889 and 0.9831 and the Anisotropy [8] was 280.7 and 279.2 and 275.8. The Fb [8] was 1.049 and 1.022 and 1.0181, the Anisotropy (MN551 67.7604 nM; Cycle 11 (50 min); n=1) was 249.8 and 261.8 and 263.5 and the Anisotropy [9] was 248.6 and 262.7 and 264. For the same compound, the “Anisotropy based on Raw Data (485)” value [9] was 273 and 273.6 and 273.9, the Anisotropy [10] was 247.9 and 260.8 and 262.2 and the “Anisotropy based on Raw Data (485)” value [10] was 273.9 and 272.8 and 272.7. The Anisotropy [11] was 247.1 and 259.2 and 261.7, the “Anisotropy based on Raw Data (485)” value [11] was 273.5 and 272.5 and 272.8 and the Anisotropy [12] was 246.9 and 261.9 and 262.5. The “Anisotropy based on Raw Data (485)” value [12] was 271.6 and 270.3 and 270.9, the Anisotropy [13] was 245.6 and 261.2 and 260.3 and the “Anisotropy based on Raw Data (485)” value [13] was 271.9 and 271.2 and 270.9. The “Anisotropy data 485,520,520” value (MN551 67.7604 nM; Cycle 19 (90 min); n=1) was 274 and 272.9 and 268.5, the “Anisotropy data 485,520,520” value (MN551 67.7604 nM; Cycle 20 (95 min); n=1) was 272.7 and 269.9 and 269.6 and the Fb (MN551 94.8645 nM, Cycle 7 (30 min)) was 0.9103 and 0.9157 and 0.873. The “Anisotropy based on Raw Data (485)” value [14] was 275.2 and 275.4 and 274.8, the Fb [14] was 0.8995 and 0.8731 and 0.8819 and the “Anisotropy based on Raw Data (485)” value [15] was 275.6 and 277.1 and 274.7. The Fb [15] was 0.8857 and 0.8982 and 0.8762, the “Anisotropy based on Raw Data (485)” value [16] was 274.4 and 274.2 and 271.6 and the Fb [16] was 0.9025 and 0.8842 and 0.8777. The “Anisotropy based on Raw Data (485)” value [17] was 273 and 275.5 and 272.5, the Fb [17] was 0.925 and 0.8825 and 0.8722 and the Anisotropy (MN551 94.8645 nM, Cycle 13 (60 min), n=1) was 276.5 and 273.8 and 270.9. The Anisotropy (MN551 94.8645 nM, Cycle 14 (65 min), n=1) was 274.8 and 273.8 and 270.2, the Anisotropy [18] was 273.5 and 273.9 and 267.6 and the “Normalised anisotropy (0 nM MN551 = 1, free probe = 0)” value [18] was 0.9934 and 0.9442. The Anisotropy [19] was 272.4 and 271.7 and 268.1, the “Normalised anisotropy (0 nM MN551 = 1, free probe = 0)” value [19] was 0.9707 and 0.9884 and 0.9484 and the Anisotropy [20] was 271.2 and 271.5 and 267.5. The “Normalised anisotropy (0 nM MN551 = 1, free probe = 0)” value [20] was 0.9846 and 0.9787 and 0.9707, the Anisotropy [21] was 271.6 and 271.8 and 267 and the “Normalised anisotropy (0 nM MN551 = 1, free probe = 0)” value [21] was 0.999 and 0.9962 and 0.993. The “Fb, fraction bound” value (MN551 94.8645 nM; Cycle 4 (15 min)) was 1.024 and 0.9774 and 0.9924, the “Fb, fraction bound” value (MN551 94.8645 nM; Cycle 5 (20 min)) was 1.011 and 0.9897 and 0.9981 and the Fb [22] was 0.9952 and 1.008 and 1.071. For the same compound, the “Fb, fraction bound” value [22] was 0.9991 and 0.9933 and 0.9706, the “Anisotropy data 485,520,520” value [23] was 273.3 and 268.2 and 263.5 and the Fb [23] was 0.9824 and 1.012 and 1.067. For the same compound, the “Fb, fraction bound” value [23] was 0.9706 and 0.9925 and 0.98, the Anisotropy [24] was 281.8 and 278.2 and 273.8 and the “Anisotropy data 485,520,520” value [24] was 272.9 and 263.9 and 265.9. For the same compound, the Fb [24] was 0.9646 and 1.009 and 1.086 and 1.05 and 0.9896 and 0.9825, the Anisotropy [25] was 275.8 and 276.6 and 273.4 and the “Anisotropy data 485,520,520” value [25] was 271.2 and 265.1 and 264.1. The Fb [25] was 0.9797 and 1.047 and 1.078 and 1 and 0.9698 and 0.9739, the Anisotropy [26] was 278 and 276.1 and 270.9 and the “Anisotropy data 485,520,520” value [26] was 269.5 and 261.1 and 262.4. The Fb [26] was 0.9923 and 1.012 and 1.075 and 1.014 and 0.9759 and 0.9511, the Anisotropy [27] was 277.4 and 274.4 and 270.1 and the Fb [27] was 1.017 and 0.9764 and 0.9638. The Anisotropy (MN551 94.8645 nM; Cycle 11 (50 min); n=1) was 271.8 and 262.9 and 260.9, the Anisotropy [28] was 269.6 and 262.3 and 258.8 and the “Anisotropy based on Raw Data (485)” value [28] was 271.6 and 273.7 and 270.4. For the same compound, the Anisotropy [29] was 269.2 and 258.5 and 260.3 and the “Anisotropy based on Raw Data (485)” value [29] was 272.8 and 273.5 and 270.6.
